# Record: PubChem BioAssay AID1259279 (Sanger Institute, 2017)
# Purpose: 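Kinase-wide knock-down seeking synergy with BYL719, cetuximab or trametinib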 (primary screen)
# Cell system: LS180 human colorectal cancer cells
# Reagents: siRNA pool against human genes
# Conditions: anchor drug BYL719 at 1 µM, cetuximab at 5 µg/ml or trametinib at 10 nM, or DMSO vehicle only
# Measurement: 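Cell viability versus a non-targeting pool, as a fraction and as a robust z-score from replicate means, plus a synergy score for each of three drugs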
# Reading the numbers: viability z-score, no drug: higher = more viable cells after knock-down; viability, no drug: higher = more viable cells; synergy score with BYL719 and synergy score with cetuximab and synergy score with trametinib: higher = stronger synthetic lethal synergy with drug
# Active means: 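a knock-down is called active, meaning essential, if its viability z-score in vehicle alone falls below -3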
# Calls: active = essential (knock-down alone cuts viability); inactive = no change without drug
# Here is an unselected part of 794 reagents tested. 11 of them (1.4%) were called active. 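Calls reflect knock-down alone in the vehicle arm, not drug synergy.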 A number with no mark means an inactive call. No viability above 1 is reported: the scale is capped. Not given: the amount of reagent, the time to read-out.
gene knocked down,"viability z-score, no drug","viability, no drug (fraction)",synergy score with BYL719,synergy score with cetuximab,synergy score with trametinib
COQ8B (coenzyme Q8B),-0.495,0.852,-0.0724,-0.102,-0.121
MAP2K7 (mitogen-activated protein kinase kinase 7),-1.53,0.74,-0.104,-0.111,-0.016
"FYN (FYN proto-oncogene, Src family tyrosine kinase)",0.86,1,0.00376,-0.0802,-0.105
IGF1R (insulin like growth factor 1 receptor),0.172,0.925,-0.0494,-0.14,-0.0863
DAPK1 (death associated protein kinase 1),-0.8,0.819,-0.2,-0.258,-0.107
FLT3 (fms related receptor tyrosine kinase 3),0.679,0.98,0.0686,-0.148,0.0347
SCYL3 (SCY1 like pseudokinase 3),0.86,1,-0.0175,-0.0146,-0.0822
PIP5KL1 (phosphatidylinositol-4-phosphate 5-kinase like 1),0.176,0.925,-0.15,-0.0869,-0.0478
ITPKC (inositol-trisphosphate 3-kinase C),0.86,1,-0.0177,0.0308,0.0881
ERN2 (endoplasmic reticulum to nucleus signaling 2),0.86,1,-0.0496,-0.089,-0.0477
CERK (ceramide kinase),0.825,0.996,0.0241,0.026,0.0933
PIP4K2A (phosphatidylinositol-5-phosphate 4-kinase type 2 alpha),0.86,1,-0.199,-0.166,-0.146
MAPK14 (mitogen-activated protein kinase 14),0.86,1,0.0424,-0.0812,0.0513
CHKA (choline kinase alpha),-2.2,0.667,-0.102,-0.0328,-0.194
CAMK2B (calcium/calmodulin dependent protein kinase II beta),-0.0646,0.899,0.0781,-0.185,-0.0337
"PKDCC (protein kinase domain containing, cytoplasmic)",0.86,1,-0.0215,0.0552,0.126
BTK (Bruton tyrosine kinase),0.86,1,0.0709,0.0393,0.193
SIK1 (salt inducible kinase 1),0.86,1,-0.0949,-0.0284,0.0929
FN1 (fibronectin 1),0.707,0.983,-0.0537,-0.0984,-0.0327
BPTF (bromodomain PHD finger transcription factor),0.381,0.948,0.116,0.0284,0.0342
"ARAF (A-Raf proto-oncogene, serine/threonine kinase)",0.86,1,-0.0229,-0.0593,-0.0794
CDK20 (cyclin dependent kinase 20),0.371,0.947,0.0958,0.14,0.109
NEK7 (NIMA related kinase 7),0.501,0.961,-0.231,-0.116,-0.236
MAP2K3 (mitogen-activated protein kinase kinase 3),-0.556,0.846,-0.111,-0.0132,-0.119
MAGI1,-1.32,0.762,-0.131,-0.1,0.0904
TBCK (TBC1 domain containing kinase),0.671,0.979,-0.153,-0.126,-0.0746
PIK3CB,-0.968,0.801,-0.0774,-0.137,-0.222
CSNK1G1 (casein kinase 1 gamma 1),-0.348,0.868,-0.174,-0.276,-0.0793
CAMK2A (calcium/calmodulin dependent protein kinase II alpha),0.413,0.951,-0.0912,-0.11,-0.0461
"GUCY2EP (guanylate cyclase 2E, pseudogene)",-0.532,0.848,-0.0399,-0.0768,-0.00631
STK36 (serine/threonine kinase 36),0.86,1,-0.0514,0.0629,0.3
MYLK (myosin light chain kinase),-0.525,0.849,-0.198,-0.14,-0.0564
MAST4,0.86,1,-0.184,-0.166,-0.114
RIOK2 (RIO kinase 2),0.364,0.946,-0.023,-0.0064,-0.123
DCLK3 (doublecortin like kinase 3),-0.356,0.867,-0.135,-0.188,-0.00347
BCR (BCR activator of RhoGEF and GTPase),-0.446,0.858,-0.187,-0.15,-0.0424
CNOT1 (CCR4-NOT transcription complex subunit 1),0.314,0.94,0.122,0.127,0.226
POMK (protein O-mannose kinase),0.619,0.974,-0.0597,-0.125,-0.0512
FXR1 (FMR1 autosomal homolog 1),0.86,1,-0.119,-0.111,0.0629
NEK1 (NIMA related kinase 1),0.581,0.97,-0.0471,0.169,0.0906

Look-ups from the list.
For “synergy score with cetuximab”, COQ8B (coenzyme Q8B) shows -0.102
Entry for ERN2 (endoplasmic reticulum to nucleus signaling 2) under “synergy score with cetuximab”: -0.089
MAST4, synergy score with BYL719 → -0.184
For “synergy score with cetuximab”, SIK1 (salt inducible kinase 1) shows -0.0284
For “synergy score with cetuximab”, RIOK2 (RIO kinase 2) reads -0.0064
For “viability, no drug (fraction)”, DCLK3 (doublecortin like kinase 3) shows 0.867

The list goes on:
gene knocked down,"viability z-score, no drug","viability, no drug (fraction)",synergy score with BYL719,synergy score with cetuximab,synergy score with trametinib
AURKC (aurora kinase C),0.0958,0.917,0.00915,-0.0924,-0.0483
CDK17 (cyclin dependent kinase 17),-0.197,0.885,-0.192,-0.00681,-0.0198
ETNK1 (ethanolamine kinase 1),-0.214,0.883,-0.232,0.0136,0.0423
KDR (kinase insert domain receptor),-0.409,0.862,-0.0599,-0.174,-0.0785
ACSL6 (acyl-CoA synthetase long chain family member 6),-0.122,0.893,-0.125,-0.136,-0.21
NEK4 (NIMA related kinase 4),-0.12,0.893,-0.105,-0.042,0.045
CDK18 (cyclin dependent kinase 18),-1.25,0.77,-0.127,-0.167,-0.151
PKIA (cAMP-dependent protein kinase inhibitor alpha),-0.896,0.808,-0.183,-0.326,-0.287
MINK1 (misshapen like kinase 1),0.372,0.947,0.0465,0.0334,0.181
BRD3 (bromodomain containing 3),0.86,1,-0.166,-0.0771,0.0504
STK32C (serine/threonine kinase 32C),0.614,0.973,-0.0706,-0.064,-0.125
PIK3C3 (phosphatidylinositol 3-kinase catalytic subunit type 3),0.86,1,-0.0436,-0.0591,-0.0515
PRKG1 (protein kinase cGMP-dependent 1),0.86,1,-0.103,-0.147,-0.119
DDR1 (discoidin domain receptor tyrosine kinase 1),0.86,1,0.0278,0.0196,-0.0357
TPK1 (thiamin pyrophosphokinase 1),0.153,0.923,-0.0899,-0.0815,0.0707
ERBB4 (erb-b2 receptor tyrosine kinase 4),0.621,0.974,-0.138,-0.0836,-0.0762
PTPRU (protein tyrosine phosphatase receptor type U),0.033,0.91,0.183,-0.0467,0.0443
TK2 (thymidine kinase 2),0.673,0.98,-0.218,0.032,-0.00397
CDKL1 (cyclin dependent kinase like 1),0.533,0.964,0.107,0.0755,0.104
CAMKV (CaM kinase like vesicle associated),0.86,1,0.0594,-0.0397,0.084
SF3B1 (splicing factor 3b subunit 1),-3.61 (active),0.512,-0.117,0.00395,-0.104
IP6K2 (inositol hexakisphosphate kinase 2),-0.372,0.866,-0.112,-0.219,0.0213
TRIB3 (tribbles pseudokinase 3),-0.259,0.878,-0.0068,0.0532,0.063
